# Counter-ions that a name gives are not always drawn. The list shows a part of the results. Most entries show no effect beyond the scatter of the controls.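 A single-replicate pilot screen of approved drugs and clinical or known-target compounds measured melting temperature via differential scanning fluorimetry. Top stabilizing hits raised the melting point by 2 °C or more; negative shifts indicate destabilization.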 Where a SMILES comes first, the peptide text is derived from it. The star is where a group is joined. Cbz = O=C(OCc1ccccc1)*
# Test system: SARS-CoV-2 main protease (Mpro, nsp5)
# Test: thermal shift ΔTm of Mpro relative to plate average Tm; higher = stronger thermal stabilization of Mpro (binding)
# Details: 10 µM; protein concentration 1 µM
row,Structure (SMILES),thermal shift ΔTm of Mpro [°C]
1,OC[C@H]1O[C@@H](Oc2ccc(O)cc2)[C@H](O)[C@@H](O)[C@@H]1O [Arbutin],-0.174
2,O=C(c1ccc(C(=O)N2CCC(N3CCCC3)CC2)c(Nc2ccccc2)c1)N1CCC(N2CCCC2)CC1,-0.0943
3,O=C(c1ccc(NS(=O)(=O)c2cccc3cccnc23)cc1)N1CCN(CC2CC2)CC1 [Mitapivat],0.136
4,Nc1ccc(S(=O)(=O)c2ccc(N)cc2)cc1 [Sulphadione],-0.0164
5,CN(C)CCc1c[nH]c2ccc(Cn3cncn3)cc12 [Rizatriptan Benzoate],7.83e-05
6,CCC(CC)Nc1cc(C)nc(Oc2c(C)cc(C)cc2C)c1C,-0.127
7,Oc1cc(Cl)ccc1Oc1ccc(Cl)cc1Cl [Triclosan],0.112
8,CN(C)c1ccc(C(c2ccc(N(C)C)cc2)c2cc([N+](=O)[O-])ccc2Cl)cc1,0.00341
9,CC(C)C[C@@H](C=O)NC(=O)[C@H](CC(C)C)NC(=O)[C@H](CC(C)C)NC(=O)OCc1ccccc1 (Cbz-Leu-Leu-Leu-aldehyde),2.7
10,COc1ccc(-c2nc(NS(=O)(=O)c3ccc(C(C)(C)C)cc3)c(Oc3ccccc3OC)c(OC[C@H](O)CO)n2)cc1,-0.26
11,CCOC(=O)c1ccc(OCCC2CCN(c3ccc(C)nn3)CC2)cc1 [Pirodavir],-0.0956
12,N=C(N)NC(=N)N1CCOCC1 [Moroxydine HCl],0.0844
13,O=C(Nc1ncc([N+](=O)[O-])s1)c1ccccc1O [Tizoxanide],0.266
14,CC(C)(C#N)c1ccc(N2C(=O)OCc3cnc4ccc(-c5cnc6ccccc6c5)cc4c32)cc1,-0.0454
15,CCN(CC)Cc1ccc2cc(COC(=O)Nc3ccc(C(=O)NO)cc3)ccc2c1 [Givinostat (ITF2357)],-0.188
16,CC(=O)Oc1cccc2c1C(=O)c1c(OC(C)=O)cc(C(=O)O)cc1C2=O [Diacerein],-0.0708
17,CCn1cc(C(=O)O)c(=O)c2cnc(N3CCNCC3)nc21 [Pipemidic acid],0.15
18,COc1cc2c(cc1OC)/C(=C/c1ccc(O)cc1)C(=O)N2,-0.0568
19,O=C(Nc1cc(C(F)(F)F)ccc1N1CCCCC1)c1ccncc1,-0.0226
20,CCCCS(=O)(=O)N[C@@H](Cc1ccc(OCCCCC2CCNCC2)cc1)C(=O)O [Tirofiban hydrochloride monohydrate],0.335
21,CNCCN1CCC(OCc2ccccc2)CC1,0.293
22,COc1nc(C)nc(Cl)c1NC1=NCCN1 [Moxonidine],0.0676
23,C[C@](O)(COc1ccc(C#N)cc1)C(=O)Nc1ccc(C#N)c(C(F)(F)F)c1,0.0235
24,Cc1ccc(NC(=O)c2ccc(CN3CCN(C)CC3)cc2)cc1Nc1nc(-c2cccnc2)cs1 [Masitinib (AB1010)],0.072
25,COc1ccc(OC)c(CN(C(C)=O)c2cc(F)ccc2Oc2ccccc2)c1,0.0235
26,CCC(C)C(C(=O)OCC[N+](C)(CC)CC)c1ccccc1 (configuration not stated) [Valethamate bromide],0.104

row,Structure (SMILES),thermal shift ΔTm of Mpro [°C]
1,Cc1ccc(S(=O)(=O)NC(=O)NN2CC3CCCC3C2)cc1 (configuration not stated) [Gliclazide],-0.104
2,CC1(C)S[C@@H]2[C@H](NC(=O)Cc3ccccc3)C(=O)N2[C@H]1C(=O)O.CCN(CC)CCOC(=O)c1ccc(N)cc1 [Procaine penicillin G],0.209
3,O=c1c(O)c(-c2cc(O)c(O)c(O)c2)oc2cc(O)cc(O)c12 [Myricetin],-0.39
4,Cc1cc(Cn2cnc3c2CC(C(=O)O)N(C(=O)C(c2ccccc2)c2ccccc2)C3)ccc1N(C)C (configuration not stated),-0.00692
5,C#CCN(C)Cc1ccccc1 [Pargyline],0.0983
6,CN(C)c1ccc(C(=O)NCCCCCCC(=O)NO)cc1,0.0568
7,CCCCCC(C)N (configuration not stated) [2-Aminoheptane],0.149
8,CCCCCc1ccc(C)cc1O [Amylmetacresol],-0.00519
9,COc1ccc2cc(CCC(C)=O)ccc2c1 [Nabumetone],-0.0191
10,COc1ccc(-c2oc3c(CC=C(C)C)c(O[C@@H]4O[C@H](CO)[C@@H](O)[C@H](O)[C@H]4O)cc(O)c3c(=O)c2O[C@@H]2O[C@@H](C)[C@H](O)[C@@H](O)[C@H]2O)cc1 [Icariin],-0.209
11,C[C@H]1[C@@H](O)O[C@@H]2O[C@@]3(C)CC[C@H]4[C@H](C)CC[C@@H]1[C@@]24OO3 [Dihydroartemisinin (DHA)],-0.181
12,O=C(Nc1nc2ccc3scnc3c2s1)c1ccc2ccccc2c1,-0.121
13,CCO[C@@H]1OC(=O)C[C@@H]1NC(=O)[C@@H]1CCCN1C(=O)[C@@H](NC(=O)c1ccc(N)c(Cl)c1)C(C)(C)C,-0.0535
14,O=C(CCCN1CC=C(n2c(=O)[nH]c3ccccc32)CC1)c1ccc(F)cc1 [Droperidol],-0.17
15,O=C(COCC(=O)Nc1ccc(Cl)cc1C(=O)O)Nc1cccc(-c2ccoc2)c1,0.0883
16,C[C@H](NC(c1cccc2[nH]c(=O)c(=O)[nH]c12)P(=O)(O)O)c1ccc(Br)cc1 (some centres not stated),0.0719
17,Fc1cccc2ccccc12 [Fluoronaphthalene],0.243
18,Oc1c(I)cc(I)c2cccnc12 [Iodoquinol],0.486
19,CC(=O)O[C@H]1C[C@H](O[C@H]2[C@@H](O)C[C@H](O[C@H]3[C@@H](O)C[C@H](O[C@H]4CC[C@@]5(C)[C@H](CC[C@@H]6[C@@H]5C[C@@H](O)[C@]5(C)[C@@H](C7=CC(=O)OC7)CC[C@]65O)C4)O[C@@H]3C)O[C@@H]2C)O[C@H](C)[C@H]1O[C@@H]1O[C@H](CO)[C@@H](O)[C@H](O)[C@H]1O [Lanatoside C],0.109
20,CC(C)N1CCN(c2ccc(OCC3COC(Cn4cncn4)(c4ccc(Cl)cc4Cl)O3)cc2)CC1 (configuration not stated) [Terconazole],-0.149
21,CC(=O)Nc1ccc(OC[C@](C)(O)C(=O)Nc2ccc([N+](=O)[O-])c(C(F)(F)F)c2)cc1 [Andarine],-0.133
22,Cc1nc(Nc2ccc(F)cc2)nc(N2CCc3ccccc3C2C)c1C (configuration not stated) [Revaprazan hydrochloride],-0.183
23,COc1ccc(CCN2CCC(Nc3nc4ccccc4n3Cc3ccc(F)cc3)CC2)cc1 [Astemizole],-0.00474
24,CCN(Cc1ccncc1)C(=O)C(CO)c1ccccc1 (configuration not stated) [Tropicamide],0.0833
25,CCN(CC)CC#CCOC(=O)C(O)(c1ccccc1)C1CCCCC1 (configuration not stated) [Oxybutynin],0.0222
26,CCN(CC)CC#CCOC(=O)C(O)(c1ccccc1)C1CCCCC1 (configuration not stated) [Oxybutynin chloride],-0.0342

# Quoted at random: 3 entries already listed, in no set order.
row,Structure (SMILES),thermal shift ΔTm of Mpro [°C]
21,CC(=O)Nc1ccc(OC[C@](C)(O)C(=O)Nc2ccc([N+](=O)[O-])c(C(F)(F)F)c2)cc1 [Andarine],-0.133
11,C[C@H]1[C@@H](O)O[C@@H]2O[C@@]3(C)CC[C@H]4[C@H](C)CC[C@@H]1[C@@]24OO3 [Dihydroartemisinin (DHA)],-0.181
4,Cc1cc(Cn2cnc3c2CC(C(=O)O)N(C(=O)C(c2ccccc2)c2ccccc2)C3)ccc1N(C)C (configuration not stated),-0.00692

# Reference: the supplement of paper PMC8166895
